Results as given in patent EP0479121A1, “Skin treatment compositions containing beta-phosphatidyl choline derivatives” (FIDIA S.p.A., priority 1990, dated 1992).
For at least one compound, name, drawing or mass did not settle the structure. Some compounds share one wording; it may come from a single statement.

Key:
[1] = Emulsifying power of β-phosphatidyl choline derivatives (Test 1); type: physicochemical; settings: for B/A x 100: 20 mg in 1 g of 1:1 w/w H₂O/isopropyl myristate, agitated at 40°C for 15 minutes, read 30 minutes after agitation, height of emulsified phase B vs entire solution A; for emulsifying power: result in words, same conditions as Table 1
[2] = test system: stratum corneum; test: In vivo hydration tests on human volunteers, Corneometer (Test 3); settings: result in words, in particular 270 minutes after application
Protocol: The hydration tests were conducted using a Corneometer laboratory instrument equipped with a capacitive probe able to measure the moisture present on the stratum corneum. To conduct the test, 50 mg of standard cream and cream containing the various synthetic β-lecithins prepared as Examples 1 and 2 are applied to the volar surface of the forearm (20 cm² ) with light circular massage.
The hydration measurements were taken before applying the product and 30 min, 150 min and 270 min after its application. The hydration values are expressed in arbitrary units deriving from electrical impedance measurements on the cutaneous surface. Although the values are relative they are in inverse linear relationship to the absolute water quantity present in the cutaneous layer of the skin (lower numbers correspond to higher hydration).

SMILES	B/A x 100 [1] [%]	emulsifying power [1]	hydrating effect on the skin [2]
CCCCCCCCCCCCCCCCCC(=O)OCC(COC(=O)CCCCCCCCCCCCCCCCC)OP(=O)([O-])OCC[N+](C)(C)C [PCS4, 1,3-distearoylglycero-2-phosphoryl choline]	100	maximum emulsifying power	considerable hydrating effect
CCCCCCCCCCCCCC(=O)OCC(COC(=O)CCCCCCCCCCCCC)OP(=O)([O-])OCC[N+](C)(C)C [PCS2, 1,3-dimyristoylglycero-2-phosphoryl choline]	100	maximum emulsifying power	considerable hydrating effect
COc1cc(C(=O)OCC(COC(=O)c2cc(OC)c(OC)c(OC)c2)OP(=O)([O-])OCC[N+](C)(C)C)cc(OC)c1OC [PCS5, 1,3-di(3,4,5-trimethoxybenzoyl)glycero-2-phosphoryl choline]	–	–	considerable hydrating effect
